# Test results reported in PubChem BioAssay AID504834 (National Center for Advancing Translational Sciences (NCATS), 2011).
# Out of some 320,000 compounds screened, about 22,000 (6.9%) were called active. Inconclusive means that the source gave no clear call. Such entries were picked first, then a sample of the others. The call rests on the fitted dose curve; in most records, active means well fitted inhibition curve with a large enough effect; inconclusive means small, poorly fitted or top-dose-only effect, or another doubt; inactive means no such curve, though single readings can be large or run the other way. Potencies of inconclusive entries are doubtful fits and often do not repeat.
# Assay: Primary qHTS for delayed death inhibitors of the malarial parasite plastid, 96 hour incubation
# Conditions: P. falciparum luciferase reporter growth; series mostly up to 28.7 µM
# Procedure, shortened: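 Two-generation exposure (96 h) targets delayed-death phenotype. Reporter parasites carrying integrated firefly luciferase, in red cells at 2% hematocrit and 0.05% parasitemia final, kept at 37 C, 5% CO2; luminescence loss indicates inhibition.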
# Potency means the concentration at half of the fitted maximal effect.
row,SMILES,Potency
1,C=CCN(CC=C)C(=O)c1ccc2nc(Cc3ccc(OC)c(OC)c3)oc2c1,"inconclusive: 10.4 µM [inhibitor, single point]"
2,CCCCn1c(=N)n(CC(=O)c2ccc(Br)s2)c2ccccc21,active: 11.7 µM
3,COc1cccc(-c2ccc(C#N)c(SCC(=O)NCCc3ccccc3)n2)c1,"inconclusive: 2.94 µM [inhibitor, full curve]"
4,O=C(Nc1nc(-c2ccc3ccccc3c2)cs1)c1ccc(N2C(=O)CCC2=O)cc1,inactive
5,COc1ccc(OC)c(S(=O)(=O)NCC(c2ccco2)S(=O)(=O)c2ccccc2)c1 (stereo not drawn),inactive
6,Cc1ccc(N=C2NC(=O)CC(C(=O)Nc3ccc4c(c3)OCO4)S2)cc1 (stereo not drawn),"inconclusive: 7.38 µM [inhibitor, partial curve, poor fit]"
7,CCCCn1c(O)c(N=NC(=O)c2ccccc2NS(=O)(=O)c2cccs2)c2ccccc21,"inconclusive: 11.7 µM [inhibitor, single point]"
8,CCOC(=O)CN1C(=O)C(CC)Oc2ccc(Cl)cc21 (stereo not drawn),"inconclusive: 16.5 µM [inhibitor, partial curve, poor fit]"
9,CNC(=O)c1ccsc1NC(=O)CCS(=O)(=O)c1ccccc1,"inconclusive: 18.5 µM [inhibitor, single point]"
10,Cc1ccc(S(=O)(=O)C(C)C(=O)NCCS(=O)(=O)c2ccc(Cl)cc2)cc1 (stereo not drawn),inactive
11,Cc1ccc2nc(-c3cccc(N)c3)[nH]c2c1,inactive
12,COc1ccc(OC)c(CN2CCN(CCCc3ccccc3)C(CCO)C2)c1 (stereo not drawn),"inconclusive: 10.4 µM [inhibitor, single point]"
13,COc1ccc(CCNC(=O)CCNC(=O)N2CC(=O)Nc3ccccc32)cc1OC,"inconclusive: 20.8 µM [inhibitor, partial curve, poor fit]"
14,O=C(O)CC1(CC(=O)Nc2ccc3ccccc3n2)CCCCC1,"inconclusive: 4.15 µM [inhibitor, single point]"
15,CC(C)c1ccc(/C=C2\NC(=O)NC2=O)cc1,inactive
16,COc1ccc(/C=C/C(=O)c2ccc3c4c(cccc24)CC3)cc1OC,"inconclusive: 18.5 µM [inhibitor, single point]"
17,Cc1ccc(S(=O)(=O)NC2=NCN(CCOC(=O)c3ccc([N+](=O)[O-])cc3)CN2)cc1,inactive
18,O=C(O)/C(=C\c1ccccc1OC(F)F)Sc1nnc(-c2ccc(F)cc2)o1,inactive
19,CN(Cc1ccccc1)C(=O)CCS(=O)(=O)c1ccc2c(c1)oc(=O)n2C,active: 13.1 µM
20,O=c1cc(O)nc(SCc2ccccc2)n1-c1ccc(Cl)cc1,inactive
21,CCCOc1ccc(C(=O)CCC(=O)OC(C)C(=O)Nc2ccc(NC(C)=O)cc2)cc1 (stereo not drawn),inactive
22,NC(=O)CC(NC(=O)c1cccc(Br)c1)c1ccc(NC2CCCCCCC2)c([N+](=O)[O-])c1 (stereo not drawn),"inconclusive: 0.117 µM [inhibitor, full curve, poor fit]"
23,CCC(C)(C)n1nnnc1C(c1ccc(C)cc1)N1CCN(Cc2ccc3c(c2)OCO3)CC1 (stereo not drawn),"inconclusive: 18.5 µM [inhibitor, single point]"
24,O=S(=O)(CCN1CCN(c2ccccc2O)CC1)c1cc(Cl)ccc1Cl,inactive

# Taken from above:
# Entry for Cc1ccc(N=C2NC(=O)CC(C(=O)Nc3ccc4c(c3)OCO4)S2)cc1 (stereo not drawn) under Potency: inconclusive: 7.38 µM [inhibitor, partial curve, poor fit]
# Entry for O=C(O)CC1(CC(=O)Nc2ccc3ccccc3n2)CCCCC1 under Potency: inconclusive: 4.15 µM [inhibitor, single point]

# Additional records follow.

row,SMILES,Potency
1,O=C(CCS(=O)(=O)c1ccc2c(c1)NC(=O)CO2)NCc1ccccc1,active: 13.1 µM
2,O=C(NCc1ccncc1)C1CCN(S(=O)(=O)c2ccc(Cl)c(C(F)(F)F)c2)CC1,inactive
3,CC(=O)Nc1cc(C(=O)OCC(=O)c2ccc(Cl)cc2Cl)ccc1C,inactive
4,Cc1cc(C(=O)Nc2cccc(S(=O)(=O)N3CCCC3)c2)c2ccccc2n1,"inconclusive: 14.7 µM [inhibitor, single point]"
5,CCc1ccc(OCC(=O)NNC(=S)NC(=O)C2CCCCC2)c(Br)c1,inactive
6,COCCNC(=O)c1cccc(OC2CCN(Cc3ccccc3C)CC2)c1,active: 1.47 µM
7,CC(C)(C)NC(=O)C(c1ccsc1)N(CCc1ccccc1)C(=O)Cn1nnc2ccccc21 (stereo not drawn),"inconclusive: 11.7 µM [inhibitor, single point]"
8,Cc1nc(-c2noc(-c3cccc(Cl)c3)n2)c(C(F)(F)F)o1,inactive
9,c1ccc(NC2=NCCN2CCCC2CCCCC2)cc1,"inconclusive: 11.7 µM [inhibitor, single point]"
10,O=C(O)c1cnc2[nH]c3ccccc3n2c1=O,inactive
11,CCOC(=O)c1c(NC(=O)CCNCc2ccco2)sc2c1CCC2,inactive
12,C/C=C(/C)C(=O)OC(C)(C)[C@@H]1Cc2c(ccc3ccc(=O)oc23)O1,"inconclusive: 13.1 µM [inhibitor, single point]"
13,Cc1ccc(NC(=S)NC(=O)c2ccc(-c3ccccc3)cc2)c(C)c1,"inconclusive: 0.185 µM [inhibitor, full curve, poor fit]"
14,CCCCCCNC(=O)N[C@H](C(=O)NCCC[C@H]1CN2C(=NC[C@H]2C)N1CCC(c1ccccc1)c1ccccc1)C(C)O (stereo partly drawn),active: 2.94 µM
15,CCCOc1ccc(C2=CSC3=NCCN23)cc1Cl,"inconclusive: 11.7 µM [inhibitor, single point]"
16,O=C(CN1CCN(Cc2ccccc2F)C1=O)NCc1ccco1,active: 13.1 µM
17,COCC(=O)Nc1ccc2nc3n(c(=O)c2c1)CCCCC3,inactive
18,C=CCOc1ccc(Oc2cc(C)nc(SC)n2)nn1,"inconclusive: 6.57 µM [inhibitor, partial curve, poor fit]"
19,O=C(NCCc1csc(-c2cccnc2)n1)c1ccc(Br)o1,active: 8.28 µM
20,O=C(CCl)Nc1cn(-c2ccccc2)nc1-c1ccc(F)cc1,"inconclusive: 11.7 µM [inhibitor, single point]"
21,CC1CCC(C(C)C)C(OC(=O)CSc2n[nH]c(=O)[nH]c2=O)C1 (stereo not drawn),active: 13.1 µM
22,COc1ccc(N2CCN(S(=O)(=O)c3cnc[nH]3)CC2)cc1,inactive
23,CCN(c1ccccc1C)S(=O)(=O)c1nnc(NC(=O)c2ccco2)s1,"inconclusive: 1.31 µM [inhibitor, partial curve]"
24,COC(=O)c1cccc(NC(=O)Nc2ccc(Cl)c(Cl)c2)c1,"inconclusive: 14.7 µM [inhibitor, partial curve, poor fit]"
